In PubChem BioAssay AID2685 (National Center for Advancing Translational Sciences (NCATS), 2010):
The other results are listed elsewhere or left out. Shown are side measurements of this screen, not its main read-out; they come without a call. The list favours compounds with an active or inconclusive main result. Potencies come from curve fits of mixed quality, noted in brackets.

Experiment: qHTS Assay for Lipid Storage Modulators in Drosophila S3 Cells;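 as to cell number change: cells counted by Cell Tracker Red CMTPX staining in the red channel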
Settings: BODIPY lipid droplet fluorescence, 18-24 h; for cell number change: measured here: cell count max response, cells fed with added oleic acid
Procedure, shortened: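 Drosophila S3 cells got compounds at several concentrations plus oleic acid (400 uM solution). Laser-scanning cytometry with 488 nm excitation read lipid droplets at 500-530 nm and cells at 575-640 nm. Percent activity was relative to 20 uM Triacsin C.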

[1] = measured here: cell number channel AC50, cells fed with added oleic acid
[2] = measured here: lipid fluorescence (Fed channel) AC50, cells fed with added oleic acid

Row | SMILES | cell number change [%] | AC50 [1] | AC50 [2]
1 | OC[C@H]1O[C@@H](n2cnc3c(NC4CCCC4)ncnc32)[C@H](O)[C@@H]1O | 39.6 | 23.1 µM [rising, single point] | 1.64 µM [rising, full curve, poor fit]
2 | Cc1ccc(N(CC(=O)Nc2ccc(C)cn2)S(=O)(=O)c2c(C)nn(C)c2C)cc1 | -2.48 |  | 14.6 µM [rising, partial curve, poor fit]
3 | CC(C)(C)SCCNS(=O)(=O)c1ccc(Cl)cc1 | 8 |  | 2.59 µM [falling, full curve]
4 | O=C(CSc1nnc(NC(=O)C2CC(=O)N(c3ccc(F)cc3)C2)s1)NCc1ccco1 (configuration not stated) | -26.1 |  | 0.206 µM [falling, full curve, poor fit]
5 | CCOC(=O)N1CCN(S(=O)(=O)c2cc3c(cc2C)NC(=O)CO3)CC1 | 9.93 |  | 7.31 µM [rising, partial curve, poor fit]
6 | Cc1cccc(NC(=O)c2ccc(N(C)C3CCCCC3)c([N+](=O)[O-])c2)n1 |  | 0.0058 µM [falling, full curve, poor fit] | 
7 | COc1ccc(NC(=O)C2CCN(S(C)(=O)=O)CC2)c(OC)c1 | 15.8 |  | 29.1 µM [rising, single point]
8 | O=C(NCC1CCCO1)c1cccc2ccccc12 (configuration not stated) | 4.2 |  | 29.1 µM [falling, single point]
9 | CSc1ncc(C(=O)Nc2ccc(C(C)=O)cc2)c(-c2ccccc2)n1 | -24.6 |  | 9.2 µM [falling, partial curve]
10 | CCN(CC)S(=O)(=O)c1ccc2oc(C(=O)Nc3ccc(OC)cc3OC)c(C)c2c1 | 0.14 |  | 
11 | O=C(NC1CCCCC1)C1CCN(c2cnccn2)CC1 | -7.09 |  | 0.00461 µM [rising, full curve, poor fit]
12 | Cc1ccccc1C(=O)NCC(=O)OC(C)C(=O)Nc1ccnn1C(C)C (configuration not stated) | -42.5 | 11.6 µM [falling, single point] | 9.2 µM [falling, partial curve]
13 | COC(=O)CCCC1=CC2=C(c3ccccc3)C(=O)C(C)(OC(=O)C3CCCC3)C(=O)C2=CN1c1ccc(OC)cc1 (configuration not stated) | -31.2 | 18.4 µM [falling, single point] | 
14 | Cc1cc(N2CCN(C(=O)c3ccco3)CC2)n2nc(-c3cccc(Cl)c3)cc2n1 | -84.7 | 13 µM [falling, partial curve] | 16.4 µM [falling, partial curve]
15 | CCOC(=O)/C(=N\Nc1cc(Cl)ccc1Cl)N1CCN(CC)CC1 | -31 | 29.1 µM [falling, single point] | 20.6 µM [falling, single point]
16 | COc1ccc(C(=O)/C=C/C(=O)N(CC(=O)NC2CCCCC2)CC2CCCO2)c(O)c1 (configuration not stated) | -69.7 | 11.6 µM [falling, partial curve] | 11.6 µM [falling, partial curve]
17 | CC(=O)N1c2ccccc2-c2nc3ccccc3n2C1C (configuration not stated) | 30.3 |  | 
18 | CCCc1cc(=O)[nH]c(SCC(=O)N(C)C2CCCCC2)n1 | 38.5 | 16.4 µM [rising, partial curve] | 8.2 µM [rising, partial curve]
19 | CC12c3ccccc3C(c3ccccc31)C1C(=O)N(Cc3cccnc3)C(=O)C12 (configuration not stated) |  |  | 0.731 µM [rising, single point]
20 | Cc1sc2nc(SC(C)C)nc(N)c2c1C | -26 |  | 

Excerpt, compounds 8–11
Row | SMILES | cell number change [%] | AC50 [1] | AC50 [2]
8 | O=C(NCC1CCCO1)c1cccc2ccccc12 (configuration not stated) | 4.2 |  | 29.1 µM [falling, single point]
9 | CSc1ncc(C(=O)Nc2ccc(C(C)=O)cc2)c(-c2ccccc2)n1 | -24.6 |  | 9.2 µM [falling, partial curve]
10 | CCN(CC)S(=O)(=O)c1ccc2oc(C(=O)Nc3ccc(OC)cc3OC)c(C)c2c1 | 0.14 |  | 
11 | O=C(NC1CCCCC1)C1CCN(c2cnccn2)CC1 | -7.09 |  | 0.00461 µM [rising, full curve, poor fit]

Going on with the list.

Row | SMILES | cell number change [%] | AC50 [1] | AC50 [2]
21 | COc1ccc(CN(C)C(=O)c2ccc(COc3ccccc3)cc2)c(OC)c1 | 32.2 | 0.461 µM [rising, full curve, poor fit] | 0.0291 µM [rising, single point]
22 | COc1ccc(CCNc2ccc(C(CC(N)=O)NC(=O)c3ccc(Br)cc3)cc2[N+](=O)[O-])cc1 (configuration not stated) | 13.5 |  | 11.6 µM [rising, partial curve]
23 | COc1ccc(-c2nnc(-c3ccc(N)cc3)o2)cc1 |  | 1.3 µM [rising, partial curve] | 1.3 µM [rising, full curve]
24 | CCC(Sc1nc2n[nH]c(C)c2c(=N)n1-c1ccc(C)c(Cl)c1)C(=O)N1CCOCC1 (configuration not stated) |  |  | 1.84 µM [rising, partial curve]
25 | COc1ccc(-c2cc(C(=O)N3CCN(c4ccccc4OC)CC3)no2)cc1 | 36.2 | 7.31 µM [rising, partial curve, poor fit] | 29.1 µM [rising, partial curve]
26 | CC(C)CC(NC(=O)C1CCC(C)CC1)C(=O)NCc1ccccn1 (configuration not stated) | -46.8 | 25.9 µM [falling, single point] | 
27 | COc1ccc(C(CNC(=O)c2cc(=O)[nH]c3ccccc23)N2CCCC2)cc1 (configuration not stated) | 7.67 |  | 2.59 µM [falling, single point]
28 | Nc1cc(S(=O)(=O)O)cc([N+](=O)[O-])c1O | -108 | 23.1 µM [falling, partial curve, poor fit] | 
29 | O=C(NCc1nnc(SCc2ccc(C(F)(F)F)cc2)n1-c1ccccc1)C12CC3CC(CC(C3)C1)C2 | -46.9 | 18.4 µM [falling, single point] | 23.1 µM [falling, single point]
30 | COc1ccccc1NC(=O)c1cc(Cl)nnc1Cl | -38.2 | 16.4 µM [falling, single point] | 
31 | Cc1csc(N2CCc3ccccc32)n1 | -0.405 |  | 
32 | CSc1ccccc1NC(=O)CN(C)C(=O)Cc1c(F)cccc1Cl | 13.3 |  | 
33 | CCc1ccccc1Cn1c(=O)oc2cccnc21 | 13.3 |  | 1.16 µM [falling, partial curve, poor fit]
34 | COc1ccccc1Sc1nc(-c2ccccn2)ncc1OC | 27.5 |  | 29.1 µM [rising, single point]
35 | CCOC(=O)C1CCCN(C2=NC(=O)/C(=C/c3ccc(OC)cc3OC)S2)C1 (configuration not stated) | -16.2 |  | 
36 | O=C(c1ccco1)N(Cc1cccc(Cl)c1)C1CCS(=O)(=O)C1 (configuration not stated) | 23.2 |  | 4.61 µM [falling, single point]
37 | O=C(/C=C/c1ccc(F)cc1)NC(=S)N1CCN(c2ccccn2)CC1 | 26.7 |  | 14.6 µM [rising, partial curve, poor fit]
38 | O/N=C(\c1ccccc1)c1nccc2ccccc12 | 8.9 |  | 29.1 µM [rising, single point]
39 | Cc1ccccc1C(=O)NNC(=S)Nc1cccc(C(F)(F)F)c1 | -12.5 |  | 1.16 µM [rising, partial curve, poor fit]
40 | COC(=O)c1cccc(NC(=O)CCc2ccccc2)c1 |  |  | 23.1 µM [rising, single point]

Row | SMILES | cell number change [%] | AC50 [1] | AC50 [2]
41 | CC(C(=O)NCC1CCCO1)N1C(=O)C2C3CC(C(Br)C3Br)C2C1=O (configuration not stated) | -44.9 | 10.3 µM [falling, partial curve, poor fit] | 
42 | CCn1c(/C=C/N(C)c2ccccc2)[n+](CC)c2ccc(Cl)cc21 | -37.3 | 20.6 µM [falling, single point] | 29.1 µM [falling, single point]
43 | COc1ccc(-c2noc(CN(C(=O)C(C)(C)C)C(C)C)n2)cc1 |  | 0.184 µM [rising, full curve, poor fit] | 
44 | Cc1cccc(-c2noc(CCCOc3ccc(Cl)cc3Cl)n2)c1 | 23.3 |  | 6.51 µM [rising, single point]
45 | CC1CN(CC(=O)c2c(N)n(Cc3ccccc3)c(=O)n(C)c2=O)CC(C)O1 (configuration not stated) | 11.2 |  | 11.6 µM [falling, partial curve]
46 | Cc1ccc(C(=O)NNC(=O)CSc2nnc(C3CC3)n2C)cc1 | 30 | 1.64 µM [rising, full curve, poor fit] | 
47 | CC1CCCN(C(=O)c2ccc3c(=O)n(Cc4ccc5c(c4)OCO5)c(=S)[nH]c3c2)C1 (configuration not stated) | -12 |  | 
48 | CCOC(=O)C1CCN(C(=O)c2oc3ccc(S(=O)(=O)N4CC(C)CC(C)C4)cc3c2C)CC1 (configuration not stated) | -21.4 |  | 0.461 µM [falling, single point]
49 | CS(=O)(=O)N1CCN(c2ccc([N+](=O)[O-])c(SCc3ccco3)c2)CC1 | 6.06 | 0.651 µM [falling, single point] | 
50 | CCN(c1ccc(C(=O)CN2C(=O)NC3(CCOc4ccccc43)C2=O)cc1)S(C)(=O)=O (configuration not stated) | -11.7 | 6.51 µM [falling, single point] | 6.51 µM [falling, partial curve, poor fit]
51 | COc1cc(=O)n(C)c2c(OCC3OC(C)(C)OC3(C)C)cccc12 (configuration not stated) | -67.1 | 3.26 µM [falling, partial curve] | 0.291 µM [falling, partial curve, poor fit]
52 | COc1ccc(-n2nc(C(=O)NCC(=O)Nc3cccc(C)n3)c3ccccc3c2=O)cc1 | 14.3 | 0.082 µM [rising, full curve, poor fit] | 0.13 µM [rising, full curve, poor fit]
53 | CCCNC(=O)Cc1c(C)oc2ccccc12 | 17.1 |  | 
54 | Cc1ccc(N2C(=O)C3C4C=CC(CC4)C3C2=O)cc1Cl (configuration not stated) | 20.2 |  | 
55 | O=C1c2ccccc2C(O)(Cc2ccccc2)N1c1ccc2c(c1)OCO2 (configuration not stated) |  | 2.59 µM [rising, partial curve] | 2.91 µM [rising, partial curve]
56 | CC(NS(=O)(=O)/C=C/c1ccccc1)c1ccccc1 (configuration not stated) | 28.4 |  | 
57 | CCOC(=O)c1c(-c2ccccc2Cl)cn2ccccc12 |  | 0.58 µM [falling, single point] | 
58 | COc1ccc(N2CCN(C(=O)COc3ncnc4ccccc34)CC2)cc1 | 13.9 |  | 
